# Results: patent US6767718B2 (BioSource Pharm, Inc., priority 2002, dated 2004)
# Assay: general procedure: peptide synthesis; DCC/HOBT; TOTU/DIEA; diisopropylcarbodiimide/HOBT; alkyl isocyanates
# Details: late stage modification step, 215 nm area %, cyclic
row,Substance,final HPLC purity [%]
1,CH3(CH2)8CO-D-Kyn-Asn-Asp-cdpeptide [Example 10],100
2,CH3(CH2)8CO-D-Phe-Asn-Asp-cdpeptide [6],100
3,CH3(CH2)8CO-L-Phe-Asn-Asp-cdpeptide [5],100

# Same assay, conditions: late stage modification step, 215 nm area %, cyclic, sequence written open
row,Substance,final HPLC purity
1,CH3(CH2)8CO-L-2-Naph-Asn-Asp-cdpeptide,about 86%
2,CH3(CH2)11NHCO-Asn-Asp-cdpeptide,86%
3,CH3(CH2)11NHCO-L-2-Naph-Asn-Asp-cdpeptide,88%
4,CH3(CH2)8CO-L-1-Naph-Asn-Asp-cdpeptide,70%
5,CH3(CH2)8CO-L-Bthio-Asn-Asp-cdpeptide,67%
6,CH3(CH2)15NHCO-Asn-Asp-cdpeptide,93%

# Same assay, conditions: lipidation step, 215 nm area %
row,Substance,final HPLC purity [%]
1,CH3(CH2)9SO2-L-Phe-Asn-Asp-FMOC-cdpeptide,100
2,CH3(CH2)11NHCO-Asn-Asp-FMOC-cdpeptide,90

# Same assay, conditions: purification step, 215 nm area %, cyclic
row,Substance,final HPLC purity [%]
1,CH3(CH2)8CO-L-Kyn-Asn-Asp-cdpeptide [9],96
2,CH3(CH2)8CO-D-Kyn-Asn-Asp-cdpeptide [10],95
